The structures appear in SMILES notation. The list shows a part of the results.

The experiment can be described thus: inhibitors of TNFa-induced NFkB p65 translocation, primary screen, imaging, HUVEC, MLSMR starter and 10KST1 sets (AID 438).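 Also: compound added about 3h40 before a 20 min TNFalpha stimulation.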 The note with it: HUVEC TNFa-induced p65 nuclear translocation, measured here: nuclei count (cytotoxicity indicator), at 2.08 µM.
For `COP1(=S)c2c(C)nn(CCC#N)c2N=C(c2ccc(F)cc2)N1C` (stereo not drawn), the cell count is 454. In turn, `O=C(COc1ccccc1)OC1CN2CCC1CC2` (stereo not drawn) gave a cell count of 380.

Turning to `CP(=S)(Nn1cnnc1)Oc1ccccc1` (stereo not drawn), the cell count worked out at 497.

`Cc1ccc(C)c(NP(C)(=O)Oc2ccccc2)c1` (stereo not drawn): the cell count was determined as 669. `Cc1cccc(OCC(=O)OC2CN3CCC2CC3)c1` (stereo not drawn) showed a cell count of 547. `CCOP1(=S)c2c(C)nn(CCC#N)c2N=C(c2ccccc2F)N1C` (stereo not drawn) registered a cell count of 416. For the compound `Cc1ccc(OCC(=O)OC2CN3CCC2CC3)cc1` (stereo not drawn), the cell count was 525.

`Cc1nn(-c2ccccc2)c2c1P(=O)(N1CCOCC1)N(C)C(c1ccccc1)=N2` (stereo not drawn) registered a cell count of 419.

Regarding `CP(=O)(Nc1ccc2c(c1)OCCO2)Oc1ccccc1` (stereo not drawn), the cell count is 418. The compound `O=P(Nc1nccs1)(c1ccccc1)c1ccccc1` displayed a cell count of 714. The figure for `CN(C)CCOC(=O)C(O)(c1ccccc1)C1CCCCC1` (stereo not drawn) is 613; for `CP(=O)(Nc1ccccn1)Oc1ccccc1` (stereo not drawn) it is 252; for `CCN(CC)CC(O)COC(=O)C(O)(c1ccccc1)C1CCCCC1` (stereo not drawn) it is 670.
